PubChem BioAssay AID652243, Drosophila RNAi Screening Center | 2013

Assay: 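Fly genes required for human androgen receptor driven transcription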 (primary screen)
Cell system: Drosophila S2R+ cells
Knock-down reagent: long dsRNA against Drosophila genes
Time to read-out: 72 h (48 h, then 24 h hormone)
Treatment: synthetic androgen R1881 at 10 nM for 24 h
Measured: 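Per-well raw luminescence of the androgen-driven firefly reporter and of the Renilla control, two replicates each, without normalisation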
Direction: firefly reporter light: higher = more light from androgen-responsive reporter; Renilla control light: higher = more constitutive control signal (cell number, transfection)
Call rule: 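Hit when the log firefly-to-Renilla ratio dropped or increased by a fixed fold versus the mean of GFP or LacZ controls across duplicate plates; lowering cut given as 1.5 and as 3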
Meaning of the calls: active = hit: reporter lowered or raised; inactive = no hit
The screen tested about 24,000 reagents; below is an unselected part of those that have a named target and a result. Of all reagents, 246 (1%) got an active call. 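Plates not normalised; calls are printed but the firefly/Renilla ratio behind them is not deposited; fold cut for lowering reported inconsistently.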 Raw values vary from plate to plate and are shown uncorrected. Entries without a mark were called inactive. A plus sign joins genes that one reagent is predicted to hit. Reagent sequences are not shown. The record does not give: the amount of reagent.

gene knocked down | DRSC id | firefly reporter light, replicate 1 | firefly reporter light, replicate 2 | Renilla control light, replicate 1 | Renilla control light, replicate 2
Rexo5 | DRSC10981 | 1.61e5 | 1.15e5 | 1.29e6 | 1.36e6
Start1 | DRSC04384 | 5.57e5 | 6.12e5 | 1.00e6 | 1.12e6
Start1 | DRSC28343 | 4.11e5 | 7.02e5 | 1.10e6 | 1.48e6
emc | DRSC23238 | 6.91e5 | 6.86e5 | 8.88e5 | 1.08e6
emc | DRSC28439 | 6.53e5 | 8.32e5 | 6.68e5 | 1.24e6
CG13810 | DRSC08344 | 2.00e5 | 2.26e5 | 2.87e6 | 2.58e6
CG13810 | DRSC22838 | 4.64e5 | 9.46e5 | 1.19e6 | 1.62e6
CG13810 | DRSC27859 | 7.44e5 | 5.83e5 | 2.33e6 | 1.35e6
Six4 | DRSC11881 | 2.02e5 | 1.42e5 | 1.71e6 | 1.40e6
Six4 | DRSC29889 | 4.13e5 | 4.02e5 | 1.10e6 | 1.32e6
CG9300 | DRSC11064 | 30648 | 24906 | 3.10e5 | 2.52e5
ND-B8 | DRSC00449 | 1.50e5 | 1.06e5 | 1.11e6 | 7.26e5
PIG-X | DRSC22721 | 3.80e5 | 4.51e5 | 1.77e6 | 1.89e6
Ccp84Ae | DRSC12590 | 5.57e5 | 3.79e5 | 2.79e6 | 2.97e6
Ccp84Ae | DRSC26385 | 2.65e5 | 3.55e5 | 6.19e5 | 1.16e6
Ccp84Ae | DRSC38956 | 7.13e5 | 7.33e5 | 1.60e6 | 1.81e6
CG1137 | DRSC12529 | 46846 | 46073 | 9.82e5 | 7.17e5
CG1137 | DRSC29434 | 4.14e5 | 4.36e5 | 1.22e6 | 1.22e6
prd | DRSC03597 | 8.38e5 | 1.19e6 | 1.35e6 | 1.96e6
Vps50 | DRSC06910 | 5.08e5 | 3.00e5 | 7.38e5 | 4.29e5
Ir94a | DRSC13538 | 1.03e5 | 1.02e5 | 1.85e5 | 2.14e5
Ir94a | DRSC28031 | 5.61e5 | 5.12e5 | 1.32e6 | 1.33e6
CG18809 | DRSC19818 | 4.76e5 | 1.82e5 | 1.59e6 | 5.25e5
CG18809 | DRSC24451 | 8.02e5 | 6.38e5 | 8.26e5 | 5.72e5
CG14082 | DRSC10086 | 3.55e5 | 3.42e5 | 2.23e6 | 2.81e6
CG14082 | DRSC25472 | 8.74e5 | 8.13e5 | 8.12e5 | 8.21e5
BEAF-32 + CG42254 (retired record) | DRSC05503 | 1.10e5 | 1.23e5 | 2.47e5 | 1.64e5

2 of these entries in another layout.
gene knocked down,DRSC id,"firefly reporter light, replicate 1","firefly reporter light, replicate 2","Renilla control light, replicate 1","Renilla control light, replicate 2"
CG13810,DRSC22838,4.64e5,9.46e5,1.19e6,1.62e6
CG13810,DRSC27859,7.44e5,5.83e5,2.33e6,1.35e6

Additional reagents follow:
gene knocked down | DRSC id | firefly reporter light, replicate 1 | firefly reporter light, replicate 2 | Renilla control light, replicate 1 | Renilla control light, replicate 2
CG12056 | DRSC17796 | 96567 | 1.03e5 | 7.49e5 | 6.02e5
Gld | DRSC12595 | 61455 | 44468 | 5.85e5 | 7.12e5
E(z) | DRSC11147 | 9.82e5 | 9.28e5 | 1.56e6 | 2.35e6
E(z) | DRSC29388 | 3.55e5 | 4.21e5 | 1.12e6 | 1.12e6
CG34174 | DRSC00101 | 1.11e6 | 9.55e5 | 1.02e6 | 1.04e6
CG13894 | DRSC23205 | 4.75e5 | 5.72e5 | 1.23e6 | 1.63e6
CG13894 | DRSC29274 | 4.48e5 | 4.24e5 | 8.39e5 | 1.06e6
nht | DRSC01976 | 2.65e5 | 3.61e5 | 2.71e6 | 2.47e6
Hip14 | DRSC10570 | 55561 | 26376 | 4.17e5 | 3.02e5
hdm | DRSC18013 | 2.65e5 | 3.09e5 | 2.50e6 | 2.83e6
CG30393 | DRSC04253 | 3.99e5 | 3.38e5 | 1.77e6 | 1.46e6
CG30393 | DRSC24833 | 7.12e5 | 6.89e5 | 6.80e5 | 7.45e5
CG4364 | DRSC02742 | 1.57e6 | 9.06e5 | 2.12e6 | 1.63e6
CG4364 | DRSC29531 | 3.06e5 | 3.78e5 | 9.16e5 | 9.16e5
